Results are given in words; binding and its absence hold for the method and conditions named. Binding calls can cover weak binding; strength is not graded here.
What was measured:
Test in all cases: cryo-EM structure; Pp-CI purified in LMNG and reconstituted into cMSP26 nanodiscs with DOPC:DOPE:CDL and Q10, 10 mM Mops pH 7.5, 50 mM KCl; Titan Krios 300 kV; particles classified into four states (state 1 closed with NUQM 2.80 A; state 3 open without NUQM 3.34 A); both purified
[1] = molecular target: ND2 core membrane subunit of Pichia pastoris complex I (Pichia pastoris (endogenous in strain X-33))
[2] = molecular target: NDUFA11 supernumerary subunit of Pichia pastoris complex I (Pichia pastoris (endogenous in strain X-33))
[3] = molecular target: NDUFB8 supernumerary subunit of Pichia pastoris complex I (Pichia pastoris (endogenous in strain X-33))

Measured: binding

B1: NUQM, supernumerary interdomain bridge subunit of Pichia pastoris complex I (protein, UniProt C4QXX8 27-190)
chain: ALATIRNDLKLNFRFKADVLEKNVIRSILAETKNLEIDNKDKDLDEFKLYDLLSKMIKQRQDSAAIYLKEGSPDRFRQTGWNELREVDYITKYLEALPVASAEEIEAKVEPIVQSVLEEEGELKSPKEIFSRIPWKVVNQDWQASEGAVKNTVLRLYNLYKTDA
binds: all assays above

— article PMC12487887, “Global conformations of Pichia pastoris complex I are distinguished by the binding of a unique interdomain bridging subunit” (Science Advances, 2025)
